Measurements from publication PMC7193419.
Results are given in words; binding and its absence hold for the method and conditions named. Binding seen in cells or lysates may run through a third protein. Some results given as binding are weak or reduced against the parent protein; the word gives no strength. For some assays here: Tags and fused reporters may be left off the sequences shown.

The chains behind the UniProt entries cited, without tags or fusion partners.
UniProt Q13535: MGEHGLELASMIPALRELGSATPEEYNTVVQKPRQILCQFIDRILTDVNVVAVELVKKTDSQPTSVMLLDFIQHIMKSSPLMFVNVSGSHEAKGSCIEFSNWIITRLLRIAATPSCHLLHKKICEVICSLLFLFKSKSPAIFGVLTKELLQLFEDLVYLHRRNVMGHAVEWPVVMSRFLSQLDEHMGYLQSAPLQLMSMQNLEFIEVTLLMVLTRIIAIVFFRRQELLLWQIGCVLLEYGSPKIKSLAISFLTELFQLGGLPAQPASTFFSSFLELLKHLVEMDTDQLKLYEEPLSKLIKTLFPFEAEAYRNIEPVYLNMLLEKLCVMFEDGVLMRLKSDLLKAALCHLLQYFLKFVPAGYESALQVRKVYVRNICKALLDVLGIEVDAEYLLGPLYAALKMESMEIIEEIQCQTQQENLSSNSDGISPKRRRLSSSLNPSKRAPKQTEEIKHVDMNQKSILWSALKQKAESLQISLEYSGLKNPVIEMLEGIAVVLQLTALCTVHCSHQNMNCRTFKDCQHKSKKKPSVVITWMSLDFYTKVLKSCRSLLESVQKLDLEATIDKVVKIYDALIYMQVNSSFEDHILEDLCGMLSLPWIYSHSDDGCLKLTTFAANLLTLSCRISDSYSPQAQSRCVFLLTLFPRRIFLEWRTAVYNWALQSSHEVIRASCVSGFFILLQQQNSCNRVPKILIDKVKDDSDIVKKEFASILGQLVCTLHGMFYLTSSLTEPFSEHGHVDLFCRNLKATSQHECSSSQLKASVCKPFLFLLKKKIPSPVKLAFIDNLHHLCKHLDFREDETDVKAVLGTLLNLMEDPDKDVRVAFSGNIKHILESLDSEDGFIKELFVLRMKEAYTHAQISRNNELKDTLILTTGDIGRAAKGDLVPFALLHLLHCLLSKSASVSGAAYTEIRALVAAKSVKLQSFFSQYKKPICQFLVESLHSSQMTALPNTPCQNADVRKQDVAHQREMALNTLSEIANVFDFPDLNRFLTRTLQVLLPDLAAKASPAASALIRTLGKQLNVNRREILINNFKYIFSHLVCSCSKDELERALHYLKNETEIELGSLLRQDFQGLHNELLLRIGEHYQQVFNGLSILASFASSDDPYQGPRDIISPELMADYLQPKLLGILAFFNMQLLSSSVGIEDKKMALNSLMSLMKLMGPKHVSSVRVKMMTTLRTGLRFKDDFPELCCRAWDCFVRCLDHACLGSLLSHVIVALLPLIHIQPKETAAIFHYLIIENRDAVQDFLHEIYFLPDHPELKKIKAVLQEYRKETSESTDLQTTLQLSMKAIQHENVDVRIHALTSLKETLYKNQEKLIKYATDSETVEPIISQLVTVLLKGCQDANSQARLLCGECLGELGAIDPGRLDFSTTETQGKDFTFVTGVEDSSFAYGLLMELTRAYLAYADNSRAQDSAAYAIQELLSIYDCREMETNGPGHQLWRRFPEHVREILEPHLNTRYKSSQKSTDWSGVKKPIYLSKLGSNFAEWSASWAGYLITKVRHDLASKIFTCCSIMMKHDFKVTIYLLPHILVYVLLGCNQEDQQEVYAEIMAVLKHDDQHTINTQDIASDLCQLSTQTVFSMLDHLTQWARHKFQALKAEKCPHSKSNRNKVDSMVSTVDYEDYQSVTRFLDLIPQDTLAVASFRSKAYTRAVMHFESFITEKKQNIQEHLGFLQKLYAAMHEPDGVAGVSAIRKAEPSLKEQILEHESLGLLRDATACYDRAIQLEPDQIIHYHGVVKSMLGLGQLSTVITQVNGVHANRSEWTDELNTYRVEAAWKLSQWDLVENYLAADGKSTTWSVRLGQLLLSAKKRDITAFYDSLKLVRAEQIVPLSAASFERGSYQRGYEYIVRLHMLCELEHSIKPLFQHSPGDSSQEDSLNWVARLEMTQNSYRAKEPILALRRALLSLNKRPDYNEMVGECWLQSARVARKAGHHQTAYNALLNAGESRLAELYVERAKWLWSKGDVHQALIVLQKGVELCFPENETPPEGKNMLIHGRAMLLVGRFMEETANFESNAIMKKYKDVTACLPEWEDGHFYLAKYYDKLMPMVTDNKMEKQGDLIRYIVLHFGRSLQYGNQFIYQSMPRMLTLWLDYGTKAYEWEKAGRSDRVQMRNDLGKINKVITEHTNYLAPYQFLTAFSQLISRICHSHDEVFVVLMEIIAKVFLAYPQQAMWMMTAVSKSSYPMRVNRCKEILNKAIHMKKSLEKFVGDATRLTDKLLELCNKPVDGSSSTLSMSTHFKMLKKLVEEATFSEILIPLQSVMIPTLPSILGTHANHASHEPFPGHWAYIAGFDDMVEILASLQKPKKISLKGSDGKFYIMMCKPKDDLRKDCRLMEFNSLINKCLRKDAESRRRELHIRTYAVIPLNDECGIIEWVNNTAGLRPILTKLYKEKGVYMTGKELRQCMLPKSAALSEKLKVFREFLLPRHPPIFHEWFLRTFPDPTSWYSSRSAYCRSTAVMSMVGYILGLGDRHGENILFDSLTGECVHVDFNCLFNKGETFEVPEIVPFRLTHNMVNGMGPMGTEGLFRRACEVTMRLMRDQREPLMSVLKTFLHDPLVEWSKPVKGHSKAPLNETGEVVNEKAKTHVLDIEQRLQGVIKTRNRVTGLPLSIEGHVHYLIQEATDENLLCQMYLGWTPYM

Columns and labels:
[1] = biological target: T1, CHK1, endogenous in HT29 and SW620 colorectal cancer cells (human (endogenous in HT29 and SW620)) (UniProt O14757); assay: co-IP; endogenous proteins; chromatin fraction of TRAF4-WT or TRAF4-knockout HT29 cells treated with 5-Fu for 24 h
T1 sequence: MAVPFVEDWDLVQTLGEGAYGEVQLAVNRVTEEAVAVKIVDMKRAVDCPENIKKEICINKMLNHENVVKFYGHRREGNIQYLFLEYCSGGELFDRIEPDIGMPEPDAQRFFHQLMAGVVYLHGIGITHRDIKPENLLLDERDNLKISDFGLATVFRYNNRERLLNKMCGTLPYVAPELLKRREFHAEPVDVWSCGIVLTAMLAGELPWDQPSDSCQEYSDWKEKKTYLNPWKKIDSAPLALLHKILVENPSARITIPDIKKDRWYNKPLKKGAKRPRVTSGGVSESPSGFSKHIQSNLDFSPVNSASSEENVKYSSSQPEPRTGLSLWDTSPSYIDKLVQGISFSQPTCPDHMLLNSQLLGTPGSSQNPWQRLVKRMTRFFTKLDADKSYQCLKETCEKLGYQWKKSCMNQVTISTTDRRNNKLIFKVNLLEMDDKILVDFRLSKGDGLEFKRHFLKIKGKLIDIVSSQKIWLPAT

[2] = biological target: T2, Flag-CHK1 wild type, expressed in HT29 cells (UniProt O14757); assay: co-IP; chromatin fraction of HT29 cells transfected with Flag-CHK1 or Flag-CHK1 K132R and treated with 5-Fu for 24 h
T2 sequence: T1 sequence

ATR (ATM- and Rad3-related), endogenous in HT29 cells (from UniProt Q13535 1-2644)
binding [1]: binds
binding [2]: binds
